According to PubChem BioAssay AID504467 (National Center for Advancing Translational Sciences (NCATS), 2011):
Screen size: about 330,000 compounds; about 7,700 (2.3%) were called active. The shares of active, inactive and inconclusive entries below differ from those in the screen. Calls follow the shape of the dose curve; as a rule, active = well fitted inhibition curve with a large enough effect; inconclusive = small, poorly fitted or top-dose-only effect, or effect the other way; inactive = flat fitted curve, though single readings scatter. Where the call is inconclusive, the potency comes from a doubtful curve fit.

Assay: qHTS screen for small molecules that inhibit ELG1-dependent DNA repair in human embryonic kidney (HEK293T) cells expressing luciferase-tagged ELG1; also: nearly all actives have a fitted effect of over 55% in size
Settings: HEK293T ELG1-luciferase reporter, luminescence, 16 h, DNA damage induced by 5-fluorouridine; activity change, negative = inhibition: at 46.1 µM (top of the series)
Procedure, shortened: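 HEK293T cells expressing luciferase-tagged ELG1 (2,000/well) received 5-Fluorouridine plus compound or DMSO for 16 hr at 37 °C. Luciferase was read by ONE-Glo luminescence after 30 min at room temperature.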
% is scaled to controls: 0 for no effect and ±100 for the full control effect; potency is read from the fitted curve at half-maximal effect.

Row | Compound | Potency | activity change, negative = inhibition
1 | CC1Cc2ccccc2N1C(=O)c1ccc(N2CCCCC2)c([N+](=O)[O-])c1 (configuration not stated) | inconclusive: 29.1 µM [inhibitor, single point] | 
2 | C#CCNc1ccc(C(=O)OCC)cc1 | inconclusive: 16.4 µM [activator, partial curve] | 
3 | Fc1ccc(CN2C3=NCCN3c3ccccc32)cc1 |  | inactive: 9.53%
4 | Cc1ccc(CC(=O)OCC(=O)c2ccc[nH]2)cc1C | inconclusive: 18.3 µM [activator, single point] | 
5 | CCOc1ccc(NS(=O)(=O)c2cc(NC(=O)c3ccc(C)cc3)ccc2Cl)cc1 | active: 6.51 µM | 
6 | COc1ccc(CCNC(=O)C2CC=CCC2C(=O)O)cc1 (configuration not stated) |  | inactive: -0.636%
7 | CN1C(=O)N(CC(=O)N2CCN(S(=O)(=O)c3ccc4c(c3)CCC4)CC2)C(=O)C12CCCCC2 | inconclusive: 10.3 µM [activator, partial curve, poor fit] | 
8 | CCC(C(=O)Nc1cc(C(=O)Nc2cc(C)ccn2)ccc1Cl)c1ccccc1 (configuration not stated) |  | inactive: -29.2%
9 | Cc1ccc2cc(C#N)c(NCCNC(=S)NCCCN(C)C)nc2c1C | inconclusive: 20.6 µM [activator, partial curve, poor fit] | 
10 | COc1ccc(N(C)S(=O)(=O)c2cccc(C(=O)OCC(=O)c3c(N)n(C)c(=O)n(C)c3=O)c2)cc1 | active: 18.3 µM | 
11 | CCN(CC)C(=O)CSc1nc2sc3c(c2c(=O)n1CCCOC)CCC3 |  | inactive: -10.6%
12 | CCOC(=O)c1ccc(N2CCOCC2)c(NC(=O)c2ccc3c(c2)OCO3)c1 | inconclusive: 11.6 µM [inhibitor, partial curve] | 
13 | Cc1cc(C)n(-c2cccc(F)n2)n1 |  | inactive: 6.04%
14 | CC1CCC2(CC1)NC(=O)N(CC(=O)NC1(C#N)CCCCC1)C2=O (configuration not stated) |  | inactive: 15.4%
15 | C/C(=N/NC(=O)c1ccc(Cn2cccn2)o1)c1cccc(NC(=O)c2ccncc2)c1 | inconclusive: 29.1 µM [inhibitor, single point] | 
16 | CCOc1ccc(-c2nc3n(c(=O)c2C#N)CCS3)cc1 | inconclusive: 13 µM [activator, partial curve, poor fit] | 
17 | CCOC(=O)C1CCCN(C(=O)c2cccc(S(=O)(=O)N(Cc3ccccc3)c3ccccc3OC)c2)C1 (configuration not stated) |  | inactive: -20.7%
18 | Nc1c(NC2CCCCC2)c2ccccc2oc1=O |  | inactive: -18.3%
19 | O=[N+]([O-])c1ccc(C2CCCC/C2=N\OCc2cccc(F)c2)c([N+](=O)[O-])c1 (configuration not stated) | inconclusive: 0.0052 µM [activator, full curve, poor fit] | 
20 | CCOC(=O)C1=C(COC(=O)C2CC(=O)N(c3ccccc3F)C2)NC(=O)NC1C (configuration not stated) | inconclusive: 14.1 µM [activator, partial curve, poor fit] | 
21 | CCCOc1ccc(-c2nnc(N)s2)cc1 | inconclusive: 18.4 µM [activator, partial curve] | 
22 | Oc1c(Br)cc(Br)cc1CNc1cccc2cccnc12 | inconclusive: 20.6 µM [inhibitor, single point] | 
23 | O=c1[nH]c(=O)c2nc3c4ccccc4c4ccccc4c3nc2[nH]1 | inconclusive: 32.6 µM [activator, partial curve, poor fit] | 
24 | Cc1ccc(-c2nnn(CC(=O)Nc3ccccc3-c3ccccc3)n2)c(-n2cnnn2)c1 | inconclusive: 18.4 µM [inhibitor, partial curve] | 

Row | Compound | Potency | activity change, negative = inhibition
25 | CC1CCCCC12NC(=O)N(CC(=O)NCc1ccco1)C2=O (configuration not stated) |  | inactive: -2.08%
26 | O=C(Nc1ccc(-c2cn3c(n2)SCC3)cc1)c1ccc2ccccc2n1 | inconclusive: 29.1 µM [inhibitor, single point] | 
27 | FC(F)(F)c1cnc(NNC(=S)Nc2ccccc2Cl)c(Cl)c1 | inconclusive: 6.51 µM [inhibitor, single point] | 
28 | O=c1cc(-c2cccs2)oc2ccc(Cl)cc12 | inconclusive: 2.06 µM [activator, partial curve] | 
29 | CN(CCOc1ccccc1)C(=O)c1ccc(N2CCCC2)c([N+](=O)[O-])c1 |  | inactive: -0.702%
30 | CCC(C(=O)NCc1ccc(C)cc1)c1ccccc1 (configuration not stated) |  | inactive: 5.1%
31 | O=C(N/N=C/c1cnc(N2CCCCC2)s1)c1ccc(Cl)cc1 | inconclusive: 29.1 µM [inhibitor, single point] | 
32 | CCOc1ccc(CCNC(=O)COC(=O)c2cc(=O)[nH]c3ccccc23)cc1OCC |  | inactive: 10.3%
33 | COc1ccc(CSc2nc3ccccc3c(=O)n2CCCN2CCOCC2)cc1F | inconclusive: 16.4 µM [inhibitor, partial curve, poor fit] | 
34 | CCOC(=O)c1nc(N2CCN(C(=O)OCC)CC2)c2c3c(sc2n1)CCCC3 | inconclusive: 7.31 µM [inhibitor, partial curve] | 
35 | COc1cc(OC)cc(-c2oc(=O)c3cc(OC)c(OC)cc3c2/C=C/c2ccc(F)cc2)c1 | inconclusive: 6.51 µM [inhibitor, single point] | 
36 | CN(C)c1ccnc(Oc2ccc(F)cc2)c1C#N | inconclusive: 16.4 µM [activator, single point] | 
37 | CC(C)c1cc(C(=O)N2CCCC(N3CCN(c4ccc(F)cc4)CC3)C2)n(C)n1 (configuration not stated) | inconclusive: 29.1 µM [inhibitor, single point] | 
38 | CCOc1cc(/C=C(\C#N)C(N)=O)ccc1OS(=O)(=O)c1ccccc1 | inconclusive: 20.6 µM [activator, single point] | 
39 | C=CCN1C=C/C(=C\C=C(C#N)C#N)c2ccccc21 | inconclusive: 14.6 µM [inhibitor, partial curve, poor fit] | 
40 | CCc1ccc(S(=O)(=O)NCc2cn3cccc(C)c3n2)s1 | inconclusive: 10.3 µM [inhibitor, partial curve, poor fit] | 
41 | CN(C)c1oc(COc2ccccc2F)nc1C#N | inconclusive: 35.5 µM [activator, single point] | 
42 | CC1CCN(Cc2nnc(-c3cccc(Br)c3)o2)CC1 | inconclusive: 18.3 µM [activator, partial curve] | 
43 | C/C(=N\N1C(=O)c2ccccc2C1=O)c1cccc([N+](=O)[O-])c1 |  | inactive: 10.3%
44 | COc1ccc(C2OC(=O)CC2C(=O)NC2CCCC(C)C2C)cc1OC (configuration not stated) |  | inactive: -0.24%
45 | O=C(CCN1CCN(Cc2ccccc2)CC1)Nc1cccc(Cl)c1 | inconclusive: 29.1 µM [inhibitor, single point] | 
46 | Cc1ccc(NC(=O)CSc2nn(-c3ccccc3)c(=S)s2)cc1S(=O)(=O)N(C)C | active: 23.1 µM | 
47 | O=C(CN1CCN(c2cccc(C(F)(F)F)c2)CC1)NCc1ccccc1 |  | inactive: -2.83%
48 | CCCCCCC(=O)N1C/C=C\C(c2ccc(OC)cc2)N(Cc2ccc(F)cc2)C(=O)[C@H]1Cc1ccccc1 (some centres not stated) |  | inactive: 24.2%

4 entries from above, reformatted:
Row	Compound	Potency	activity change, negative = inhibition
29	CN(CCOc1ccccc1)C(=O)c1ccc(N2CCCC2)c([N+](=O)[O-])c1		inactive: -0.702%
32	CCOc1ccc(CCNC(=O)COC(=O)c2cc(=O)[nH]c3ccccc23)cc1OCC		inactive: 10.3%
41	CN(C)c1oc(COc2ccccc2F)nc1C#N	inconclusive: 35.5 µM [activator, single point]	
43	C/C(=N\N1C(=O)c2ccccc2C1=O)c1cccc([N+](=O)[O-])c1		inactive: 10.3%

Next part.

Row | Compound | Potency | activity change, negative = inhibition
49 | O=C(COc1ccc(F)cc1)NCCNC(=O)COc1ccc(F)cc1 |  | inactive: 3.02%
50 | O=C(NCc1ccco1)c1ccc2c(=O)n(CC3CCCO3)c(=S)[nH]c2c1 (configuration not stated) | active: 13 µM | 
51 | CC(=O)N1CC[n+]2c(-c3ccc(Cl)cc3)csc21 |  | inactive: -0.81%
52 | Cc1csc(NC(=O)c2cc3c(C)nn(Cc4ccccc4Cl)c3s2)n1 | inconclusive: 23.1 µM [inhibitor, single point] | 
53 | Oc1c(Cl)cc(CN2CCOCC2)c2cccnc12 | inconclusive: 20.6 µM [inhibitor, partial curve, poor fit] | 
54 | CC(C)CCOc1ccc(C(=O)NCCC(=O)N2CCOCC2)cc1 | inconclusive: 11.2 µM [activator, single point] | 
55 | CC(=O)N1CCN(c2ccc(NC(=O)c3cc(Cl)ccc3Cl)cc2)CC1 |  | inactive: -24.2%
56 | COc1ccccc1C(=O)CC(=O)c1ccccc1 | inconclusive: 14.6 µM [activator, partial curve] | 
57 | Cc1c(C#N)c(N)nc2c3c(sc12)NC(=O)CC3c1ccc(Cl)cc1 (configuration not stated) | inconclusive: 25.9 µM [inhibitor, single point] | 
58 | Brc1c(-c2ccc3c(c2)OCO3)nc2ncccn12 | inconclusive: 29.1 µM [activator, single point] | 
59 | COc1ccc(NC(=O)c2cc(CN3C(=O)c4ccccc4C3=O)ccc2OC)cn1 | inconclusive: 5.17 µM [inhibitor, partial curve, poor fit] | 
60 | O=S(Cc1ccc(Cl)cc1)CC(O)COCc1ccc(Cl)cc1 (configuration not stated) |  | inactive: -19.8%
61 | COc1ccc(COC(=O)c2cc(S(=O)(=O)N3CCCCC3)ccc2N2CCOCC2)cc1 | inconclusive: 13 µM [inhibitor, single point] | 
62 | COc1cc(/C=N/NC(=O)c2ccccc2)ccc1O | inconclusive: 23.1 µM [activator, single point] | 
63 | Cc1ccc(-n2c(C)cc(C(=O)CN3CCOCC3)c2C)cc1 | inconclusive: 20.6 µM [activator, partial curve] | 
64 | Cc1cccc(C(=O)Nc2c(C#N)c(C)c(C)n2Cc2ccccc2)c1 |  | inactive: -8.51%
65 | CCCOC(=O)Nc1ccc(C(N)=O)cc1 | inconclusive: 16.4 µM [activator, partial curve] | 
66 | O=C(CSc1nnnn1-c1ccccc1Cl)Nc1ccc2c(c1)OCCO2 | inconclusive: 20.6 µM [activator, partial curve] | 
67 | O=C(/C=C/c1ccco1)NC(=S)Nc1ccccn1 | inconclusive: 16.4 µM [activator, partial curve] | 
68 | O=C1CCCc2nc(NCc3ccco3)ncc21 | inconclusive: 29.1 µM [activator, single point] | 
69 | COc1ccc(CNc2nc(C)cc(C)c2C#N)cc1 |  | inactive: 7.71%
70 | COc1ccc(C=O)cc1Oc1nc(Cl)ncc1F |  | inactive: -3.83%
71 | Cc1cccc(C)c1NC(=O)CN(C)C(C)C(=O)Nc1ccccc1-c1ccccc1 (configuration not stated) |  | inactive: 0%
72 | CCCc1[nH]n(-c2ccc([N+](=O)[O-])cc2)c(=O)c1C=NCCc1ccc(OC)c(OC)c1 |  | inactive: -14.1%
